SMILES strings stand for the structures. Several values for one entry are separate records, joined by “and”; a condition that tells them apart may be missing. Equal entries are not always repeated. The list shows a part of the results. Repeats in this data set agree poorly, so a single value says little.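 HEK293T cells were given each compound shortly before transfection with a reporter in which red mCherry is followed by the SARS-CoV-2 frameshift element and then GFP in the −1 frame, so GFP appears only after frameshifting.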

The subject of this test is SARS-CoV-2 -1 PRF reporter mCherry-FSE-GFP(-1). Kind of test: mCherry (red) intensity as percent of control; higher = higher upstream reporter expression. The settings on record: 10 µM; 24 h; HEK293T.
Regarding `Cc1c(Cl)cccc1Nc1ncccc1C(=O)O` [clonixin], the mCherry is 98.9%.

In turn, `NC(=O)CCC/N=C(\c1ccc(Cl)cc1)c1cc(F)ccc1O` [progabide] gave a mCherry of 83.3%.

With `C[C@H]1O[C@H](O[C@H]2[C@H](O)[C@@H](O)[C@@H](O[C@@H]([C@H](O)[C@@H](O)C=O)[C@H](O)CO)O[C@@H]2CO)[C@H](O)[C@@H](O)[C@@H]1N[C@H]1C=C(CO)[C@@H](O)[C@H](O)[C@H]1O` [acarbose], the mCherry is 88.6% and 105%.

`NC12CC3CC(CC(C3)C1)C2` had a mCherry of 78.5%.

Take `CC(=O)S[C@@H]1CC2=CC(=O)CC[C@]2(C)[C@H]2CC[C@@]3(C)[C@@H](CC[C@@]34CCC(=O)O4)[C@H]12` [spironolactone]: the mCherry is 97% and 101%.

As to `Cc1ccc(S(=O)(=O)NC(=O)N[C@H]2[C@H]3CC[C@@](C)([C@H]2O)C3(C)C)cc1` [glibornuride], the mCherry was found to be 103%.

As to `Cn1cnc([N+](=O)[O-])c1Sc1nc(N)nc2[nH]cnc12` [tiamiprine], the mCherry was 82.5%.

Turning to `O=C(Nc1ccc(C(=O)O)c(O)c1)c1ccccc1` [calcium benzamidosalicylate], the mCherry is 88.7%.

Molecule `CC(C)CCCC(C)N` (centres undefined) [octodrine] gave a mCherry of 88.1%.

Values taken from the supplement of paper PMC8256030.
